According to US20150105327:

Biological target: recombinant human histone H2A (wild type)

Protein | H2A phosphorylation in nucleosomes, in vitro kinase assay, autoradiography
VprBP mutant at D361 (protein) MTTVVVHVDSKAELTTLLEQWEKEHGSGQDMVPILTRMSQLIEKETEEYRKGDPDPFDDRHPGRADPECMLGHLLRILFKNDDFMNALVNAYVMTSREPPLNTAACRLLLDIMPGLETAVVFQEKEGIVENLFKWAREADQPLRTYSTGLLGGAMENQDIAANYRDENSQLVAIVLRRLRELQLQEVALRQENKRPSPRKLSSEPLLPLDEEAVDMDYGDMAVDVVDGDQEEASGDMEISFHLDSGHKTSSRVNSTTKPEDGGLKKNKSAKQGDRENFRKAKQKLGFSSSDPDRMFVELSNSSWSEMSPWVIGTNYTLYPMTPAIEQRLILQYLTPLGEYQELLPIFMQLGSRELMMFYILKQTNDVLLTFEALKHLASLLLHNKFATEFVAHGGVQKLLEIPRPSMAATGVSMCLYYLSYNQDAMERVCMHPHNVLSDVVNYTLWLMECSHASGCCHATMFFSICFSFRAVLELFDRYDGLRRLVNLISTLEILNLEDQGALLSDDEIFASRQTGKHTCMALRKYFEAHLAIKLEQVKQSLQRTEGGILVHPQPPYKACSYTHEQIVEMMEFLIEYGPAQLYWEPAEVFLKLSCVQLLLQLISIACNWKTYYARNDTVRFALDVLAILTVVPKIQLQLAESVDVLDEAGSTVSTVGISIILGVAEGEFFIHDAEIQKSALQIIINCVCGPDNRISSIGKFISGTPRRKLPQNPKSSEHTLAKMWNVVQSNNGIKVLLSLLSIKMPITDADQIRALACKALVGLSRSSTVRQIISKLPLFSSCQIQQLMKEPVLQDKRSDHVKFCKYAAELIERVSGKPLLIGTDVSLARLQKADVVAQSRISFPEKELLLLIRNHLISKGLGETATVLTKEADLPMTAASHSSAFTPVTAAASPVSLPRTPRIANGIATRLGSHAAVGASAPSAPTAHPQPRPPQGPLALPGPSYAGNSPLIGRISFIRERPSPCNGRKIRVLRQKSDHGAYSQSPAIKKQLDRHLPSPPTLDSIITEYLREQHARCKNPVATCPPFSLFTPHQCPEPKQRRQAPINFTSRLNRRASFPKYGGVDGGCFDRHLIFSRFRPISVFREANEDESGFTCCAFSARERFLMLGTCTGQLKLYNVFSGQEEASYNCHNSAITHLEPSRDGSLLLTSATWSQPLSALWGMKSVFDMKHSFTEDHYVEFSKHSQDRVIGTKGDIAHIYDIQTGNKLLTLFNPDLANNYKRNCATFNPTDDLVLNDGVLWDVRSAQAIHKFDKFNMNISGVFHPNGLEVIINTEIWDLRTFHLLHTVPALDQCRVVFNHTGTVMYGAMLQADDEDDLMEERMKSPFGSSFRTFNATDYKPIATIDVKRNIFDLCTDTKDCYLAVIENQGSMDALNMDTVCRLYEVGRQRLAEDEDEEEDQEEEEQEEEDDDEDDDDTDDLDELDTDQLLEAELEEDDNNENAGEDGDNDFSPSDEELANLLEEGEDGEDEDSDADEEVELILGDTDSSDNSDLEDDIILSLNE | Mutation at either D361 or K363 that is conserved in the subdomain VI also impaired the catalytic activity
VprBP mutant at K363 (protein) MTTVVVHVDSKAELTTLLEQWEKEHGSGQDMVPILTRMSQLIEKETEEYRKGDPDPFDDRHPGRADPECMLGHLLRILFKNDDFMNALVNAYVMTSREPPLNTAACRLLLDIMPGLETAVVFQEKEGIVENLFKWAREADQPLRTYSTGLLGGAMENQDIAANYRDENSQLVAIVLRRLRELQLQEVALRQENKRPSPRKLSSEPLLPLDEEAVDMDYGDMAVDVVDGDQEEASGDMEISFHLDSGHKTSSRVNSTTKPEDGGLKKNKSAKQGDRENFRKAKQKLGFSSSDPDRMFVELSNSSWSEMSPWVIGTNYTLYPMTPAIEQRLILQYLTPLGEYQELLPIFMQLGSRELMMFYIDLQTNDVLLTFEALKHLASLLLHNKFATEFVAHGGVQKLLEIPRPSMAATGVSMCLYYLSYNQDAMERVCMHPHNVLSDVVNYTLWLMECSHASGCCHATMFFSICFSFRAVLELFDRYDGLRRLVNLISTLEILNLEDQGALLSDDEIFASRQTGKHTCMALRKYFEAHLAIKLEQVKQSLQRTEGGILVHPQPPYKACSYTHEQIVEMMEFLIEYGPAQLYWEPAEVFLKLSCVQLLLQLISIACNWKTYYARNDTVRFALDVLAILTVVPKIQLQLAESVDVLDEAGSTVSTVGISIILGVAEGEFFIHDAEIQKSALQIIINCVCGPDNRISSIGKFISGTPRRKLPQNPKSSEHTLAKMWNVVQSNNGIKVLLSLLSIKMPITDADQIRALACKALVGLSRSSTVRQIISKLPLFSSCQIQQLMKEPVLQDKRSDHVKFCKYAAELIERVSGKPLLIGTDVSLARLQKADVVAQSRISFPEKELLLLIRNHLISKGLGETATVLTKEADLPMTAASHSSAFTPVTAAASPVSLPRTPRIANGIATRLGSHAAVGASAPSAPTAHPQPRPPQGPLALPGPSYAGNSPLIGRISFIRERPSPCNGRKIRVLRQKSDHGAYSQSPAIKKQLDRHLPSPPTLDSIITEYLREQHARCKNPVATCPPFSLFTPHQCPEPKQRRQAPINFTSRLNRRASFPKYGGVDGGCFDRHLIFSRFRPISVFREANEDESGFTCCAFSARERFLMLGTCTGQLKLYNVFSGQEEASYNCHNSAITHLEPSRDGSLLLTSATWSQPLSALWGMKSVFDMKHSFTEDHYVEFSKHSQDRVIGTKGDIAHIYDIQTGNKLLTLFNPDLANNYKRNCATFNPTDDLVLNDGVLWDVRSAQAIHKFDKFNMNISGVFHPNGLEVIINTEIWDLRTFHLLHTVPALDQCRVVFNHTGTVMYGAMLQADDEDDLMEERMKSPFGSSFRTFNATDYKPIATIDVKRNIFDLCTDTKDCYLAVIENQGSMDALNMDTVCRLYEVGRQRLAEDEDEEEDQEEEEQEEEDDDEDDDDTDDLDELDTDQLLEAELEEDDNNENAGEDGDNDFSPSDEELANLLEEGEDGEDEDSDADEEVELILGDTDSSDNSDLEDDIILSLNE | Mutation at either D361 or K363 that is conserved in the subdomain VI also impaired the catalytic activity
VprBP mutant at L378 (protein) MTTVVVHVDSKAELTTLLEQWEKEHGSGQDMVPILTRMSQLIEKETEEYRKGDPDPFDDRHPGRADPECMLGHLLRILFKNDDFMNALVNAYVMTSREPPLNTAACRLLLDIMPGLETAVVFQEKEGIVENLFKWAREADQPLRTYSTGLLGGAMENQDIAANYRDENSQLVAIVLRRLRELQLQEVALRQENKRPSPRKLSSEPLLPLDEEAVDMDYGDMAVDVVDGDQEEASGDMEISFHLDSGHKTSSRVNSTTKPEDGGLKKNKSAKQGDRENFRKAKQKLGFSSSDPDRMFVELSNSSWSEMSPWVIGTNYTLYPMTPAIEQRLILQYLTPLGEYQELLPIFMQLGSRELMMFYIDLKQTNDVLLTFEALKHASLLLHNKFATEFVAHGGVQKLLEIPRPSMAATGVSMCLYYLSYNQDAMERVCMHPHNVLSDVVNYTLWLMECSHASGCCHATMFFSICFSFRAVLELFDRYDGLRRLVNLISTLEILNLEDQGALLSDDEIFASRQTGKHTCMALRKYFEAHLAIKLEQVKQSLQRTEGGILVHPQPPYKACSYTHEQIVEMMEFLIEYGPAQLYWEPAEVFLKLSCVQLLLQLISIACNWKTYYARNDTVRFALDVLAILTVVPKIQLQLAESVDVLDEAGSTVSTVGISIILGVAEGEFFIHDAEIQKSALQIIINCVCGPDNRISSIGKFISGTPRRKLPQNPKSSEHTLAKMWNVVQSNNGIKVLLSLLSIKMPITDADQIRALACKALVGLSRSSTVRQIISKLPLFSSCQIQQLMKEPVLQDKRSDHVKFCKYAAELIERVSGKPLLIGTDVSLARLQKADVVAQSRISFPEKELLLLIRNHLISKGLGETATVLTKEADLPMTAASHSSAFTPVTAAASPVSLPRTPRIANGIATRLGSHAAVGASAPSAPTAHPQPRPPQGPLALPGPSYAGNSPLIGRISFIRERPSPCNGRKIRVLRQKSDHGAYSQSPAIKKQLDRHLPSPPTLDSIITEYLREQHARCKNPVATCPPFSLFTPHQCPEPKQRRQAPINFTSRLNRRASFPKYGGVDGGCFDRHLIFSRFRPISVFREANEDESGFTCCAFSARERFLMLGTCTGQLKLYNVFSGQEEASYNCHNSAITHLEPSRDGSLLLTSATWSQPLSALWGMKSVFDMKHSFTEDHYVEFSKHSQDRVIGTKGDIAHIYDIQTGNKLLTLFNPDLANNYKRNCATFNPTDDLVLNDGVLWDVRSAQAIHKFDKFNMNISGVFHPNGLEVIINTEIWDLRTFHLLHTVPALDQCRVVFNHTGTVMYGAMLQADDEDDLMEERMKSPFGSSFRTFNATDYKPIATIDVKRNIFDLCTDTKDCYLAVIENQGSMDALNMDTVCRLYEVGRQRLAEDEDEEEDQEEEEQEEEDDDEDDDDTDDLDELDTDQLLEAELEEDDNNENAGEDGDNDFSPSDEELANLLEEGEDGEDEDSDADEEVELILGDTDSSDNSDLEDDIILSLNE | mutation of L378 lying outside the conserved subdomains did not affect VprBP kinase activity
